PubChem BioAssay AID595 (National Center for Advancing Translational Sciences (NCATS), 2007)
In all, about 71,000 compounds went through this assay and about 310 (0.44%) were called active. The shares of active, inactive and inconclusive entries below differ from those in the screen. The call rests on the fitted dose curve; in most records, active means well fitted curve in either direction with a large enough effect; inconclusive means small, poorly fitted or top-dose-only effect, or another doubt; inactive means flat fitted curve, though single readings scatter. Where the call is inconclusive, the potency comes from a doubtful curve fit.

System: Hsp90 C-terminal peptide / TPR2A (Hop) interaction, human
Assay: qHTS Assay for Disrupters of an Hsp90 Co-Chaperone Interaction
Conditions: AlphaScreen TPR2A-His6 binding biotin-Hsp90 C-terminal peptide; activity change, negative = inhibition: at 57 µM (top of the series) unless noted
On the % scale 0 is the no-effect control and ±100 the full control effect; potency means the concentration at half of the fitted maximal effect.

Q: With `CCN(Cc1ccccc1)S(=O)(=O)c1ccc(C(=O)Nc2nnc(C3CC3)o2)cc1` as the compound, how does the Potency read?
A: The Potency was inconclusive: 39.8 µM [inhibitor, single point].

Q: With `CC(=O)c1cnc2cc(-c3ccccc3)nn2c1C` as the compound, how does the activity change, negative = inhibition read?
A: The activity change, negative = inhibition was inconclusive: 38%.

Q: How did the activity change, negative = inhibition turn out when `CCCCNc1ncnc2c1cnn2-c1ccc(Cl)cc1` was run?
A: The activity change, negative = inhibition was inconclusive: 61.5%.

Q: `CN1CCN(CC#CC2(O)CCCCC2)CC1` was tested. Which activity change, negative = inhibition did it give?
A: The activity change, negative = inhibition was inconclusive: 92.2%.

Q: For `CCCCCCCCN`, which activity change, negative = inhibition is on record?
A: Its activity change, negative = inhibition is inconclusive: 49.1%.

Q: How did the activity change, negative = inhibition turn out when `CCOc1ccc(C(CC(=O)O)NS(=O)(=O)c2ccc(C)cc2)cc1OC` (stereo not given) was run?
A: Its activity change, negative = inhibition is inconclusive: 46.5%.

Q: How did the activity change, negative = inhibition turn out when `COc1ccc(NS(=O)(=O)c2cc(-c3nnnn3C)ccc2OC)cc1` was run?
A: Its activity change, negative = inhibition is inconclusive: 40.9%.

Q: With `COc1cccc(-c2nc(N(C)Cc3ccco3)c3ccccc3n2)c1` as the compound, how does the Potency read?
A: The Potency was inconclusive: 25.1 µM [activator, single point].

Q: How did the activity change, negative = inhibition turn out when `COC(=O)c1c(=O)n(O)c2ccc(OC)cc2[n+]1[O-]` was run?
A: The activity change, negative = inhibition was inconclusive: 41.6%.

Q: Which activity change, negative = inhibition does the source give for `CC(C)C(=O)Nc1cccc(C(=O)Nc2nncs2)c1` here?
A: Its activity change, negative = inhibition is inconclusive: 56.2%.

Q: For `FC(F)(F)c1ccccc1-c1cncnc1NCCc1cnc[nH]1`, which “activity change, negative = inhibition” value is on record?
A: Its value is inactive: 1.59%.

Q: Which activity change, negative = inhibition does the source give for `CCCCN(C)C(=O)C1CCN(Cc2ccccn2)CC1` here?
A: The activity change, negative = inhibition was inconclusive: -4.63%.

Q: `CC(C)(C)CC(C)(C)c1ccc(OCOCCOCCO)c(Cc2cc(C(C)(C)CC(C)(C)C)cc(Cc3cc(C(C)(C)CC(C)(C)C)ccc3OCOCCOCCO)c2OCOCCOCCO)c1` was tested. Which activity change, negative = inhibition did it give?
A: The activity change, negative = inhibition was inconclusive: 58% [at 26 µM].

Q: With `CCCc1nnc(NC(=O)CN2C(=O)C3C4C=CC(C4)C3C2=O)s1` (stereo not given) as the compound, how does the activity change, negative = inhibition read?
A: The activity change, negative = inhibition was inconclusive: 49.3%.

Q: How did the “activity change, negative = inhibition” value turn out when `O=C(CSc1nnc(-c2cccs2)o1)c1cccs1` was run?
A: Its value is inactive: -2.97%.

Q: For `COc1ccc(NCc2ccc3c(c2)OCO3)cc1Cl`, which Potency is on record?
A: The Potency was inconclusive: 25.1 µM [inhibitor, partial curve].

Q: Which Potency does the source give for `COc1cc(N=Nc2cccc(S(N)(=O)=O)c2)c2ccccc2c1N` here?
A: The Potency was inconclusive: 3.98 µM [inhibitor, partial curve].

Q: For `O=C(NCCc1ccccc1)c1ccc(=O)oc1`, which activity change, negative = inhibition is on record?
A: The activity change, negative = inhibition was inconclusive: 47.5%.

Q: How did the Potency turn out when `CC(=O)N1CN(CCCn2ccnc2)Cc2c1sc1c2CCCC1` was run?
A: The Potency was inconclusive: 25.1 µM [inhibitor, partial curve].

Q: For `CCOC(=O)N1CCC(NC(=O)CSc2cc(=O)n(C)c3ccc(Cl)cc23)CC1`, which activity change, negative = inhibition is on record?
A: The activity change, negative = inhibition was inconclusive: 36%.

Q: With `Cc1ccc(C(C)C)c(OCC(O)CN2CCOCC2)c1` (stereo not given) as the compound, how does the activity change, negative = inhibition read?
A: Its activity change, negative = inhibition is inconclusive: 43.4%.

Q: Which Potency does the source give for `Cc1cccc2cc3ccc4ccccc4c3cc12` here?
A: Its Potency is inconclusive: 3.16 µM [activator, single point].

Q: `CC(C)NC(=O)N1CCCC2(CCN(C(=O)c3cccn3C)CC2)C1` was tested. Which “activity change, negative = inhibition” value did it give?
A: Its value is inactive: -1.72%.

Q: `CC(C)(C)NC(=O)c1ccccc1-c1nc(-c2ccccc2Cl)no1` was tested. Which activity change, negative = inhibition did it give?
A: The activity change, negative = inhibition was inconclusive: 51.8%.

Q: Which Potency does the source give for `CCOc1ccc(N(Cc2cc3cc(OC)ccc3[nH]c2=O)S(C)(=O)=O)cc1` here?
A: Its Potency is inconclusive: 20 µM [activator, single point].

Q: With `Cc1cc(C)c2c(=O)[nH]c(SCC(=O)N3CCCCC3)nc2n1` as the compound, how does the activity change, negative = inhibition read?
A: The activity change, negative = inhibition was inconclusive: 58% [at 11 µM].

Q: `Brc1ccc(C2Nc3cccc4cccc(c34)N2)o1` was tested. Which Potency did it give?
A: Its Potency is inconclusive: 20 µM [inhibitor, single point].

Q: With `Cc1c(C(=O)NCCC2=CCCCC2)oc2ccc(S(=O)(=O)N3CCOCC3)cc12` as the compound, how does the “activity change, negative = inhibition” value read?
A: The value was inactive: 0.806%.

Q: How did the Potency turn out when `O=C(C1CC1)N(Cc1ccco1)c1nc(-c2ccccc2)cs1` was run?
A: The Potency was inconclusive: 25.1 µM [activator, single point].

Q: How did the activity change, negative = inhibition turn out when `Cc1ccccc1CN1CCCNC1=O` was run?
A: The activity change, negative = inhibition was inconclusive: 37.9%.

Q: With `O=C(Nc1cccc(-c2nnc(-c3ccccc3)o2)c1)C1CCCCC1` as the compound, how does the “activity change, negative = inhibition” value read?
A: Its value is inactive: 6.17%.

Q: For `COC(=O)[C@@]1(Cc2ccc(F)cc2)[C@H]2c3cc(C(=O)N(C)C)n(CCO)c3C[C@H]2CN1C(=O)c1ccccc1`, which activity change, negative = inhibition is on record?
A: The activity change, negative = inhibition was inconclusive: 72.1%.

Q: Which “activity change, negative = inhibition” value does the source give for `CC(=O)OCC(=O)[C@@]1(O)CC[C@@H]2[C@@H]3CCC4=CC(=O)CC[C@@]4(C)[C@H]3C(=O)C[C@]21C` here?
A: The value was inactive: -3.11%.

Q: `O=C(c1ccccc1)N1CCN(c2ccc(NCc3ccc4c(c3)OCO4)cc2)CC1` was tested. Which Potency did it give?
A: Its Potency is inconclusive: 25.1 µM [inhibitor, single point].

Q: Which activity change, negative = inhibition does the source give for `COc1ccccc1C(=O)n1nc(-c2cccnc2)nc1N` here?
A: The activity change, negative = inhibition was inactive: -6.89% [at 2.3 µM].

Q: `c1ccc2nc3c(nc2c1)[nH]c1ccccc13` was tested. Which activity change, negative = inhibition did it give?
A: Its activity change, negative = inhibition is inconclusive: 54.9%.

Q: `COC(=O)Cc1c(C)c2cc(Cl)c(OC(=O)c3ccco3)cc2oc1=O` was tested. Which “activity change, negative = inhibition” value did it give?
A: The value was inactive: 0.883%.

Q: How did the activity change, negative = inhibition turn out when `Cc1nc(-c2ccccc2)cc(N2CCCC2)n1` was run?
A: The activity change, negative = inhibition was inactive: -6.37% [at 11 µM].

Q: How did the activity change, negative = inhibition turn out when `CC(C)(C)SCCNC(=O)CN1C(=O)c2ccccc2S1(=O)=O` was run?
A: Its activity change, negative = inhibition is inconclusive: 45.2%.

Q: For `Clc1cccc(Cl)c1COc1ccncc1`, which activity change, negative = inhibition is on record?
A: Its activity change, negative = inhibition is inconclusive: 36.6%.

Q: Which activity change, negative = inhibition does the source give for `CCCC(=O)Nc1cc(Cl)ccc1N1CCN(C(=O)CC)CC1` here?
A: Its activity change, negative = inhibition is inconclusive: 52.4%.

Q: How did the “activity change, negative = inhibition” value turn out when `O=P(O)(O)O` was run?
A: Its value is inactive: 2.06%.

Q: `CCc1cc2c(=O)n(Cc3ccco3)c(SCc3c(C)noc3C)nc2s1` was tested. Which activity change, negative = inhibition did it give?
A: The activity change, negative = inhibition was inconclusive: 59.6%.

Q: With `CC(Sc1ncc(C#N)c(N)n1)C(=O)Nc1ccccc1` (stereo not given) as the compound, how does the “activity change, negative = inhibition” value read?
A: The value was inactive: -4.42%.

Q: Which activity change, negative = inhibition does the source give for `COc1ccccc1N1CCN(c2ncnc3c2oc2ccccc23)CC1` here?
A: The activity change, negative = inhibition was inconclusive: 46.2%.

Q: `c1ccc(CO[C@H]2NCCN2Cc2ccccc2)cc1` was tested. Which activity change, negative = inhibition did it give?
A: Its activity change, negative = inhibition is inconclusive: 93% [at 11 µM].

Q: With `Cc1nc2cnc(N(C)C)nc2n(C[C@H]2CCCO2)c1=O` as the compound, how does the “activity change, negative = inhibition” value read?
A: The value was inactive: -2.23%.

Q: For `CN(c1nc2ccccc2n2c(-c3ccco3)nnc12)S(=O)(=O)c1ccccc1`, which activity change, negative = inhibition is on record?
A: The activity change, negative = inhibition was inconclusive: 48.2%.

Q: Which activity change, negative = inhibition does the source give for `C[C@H](CCC(=O)O)[C@H]1CC[C@@H]2[C@H]3[C@@H](CC[C@@]21C)[C@]1(C)CC[C@H](O)C[C@@H]1C[C@@H]3O` here?
A: Its activity change, negative = inhibition is inconclusive: 58.1% [at 26 µM].

Q: With `C=CCn1c(SCC(=O)NCCCC)nc2scc(-c3ccco3)c2c1=O` as the compound, how does the “activity change, negative = inhibition” value read?
A: The value was inactive: -8.04%.

Q: `CCOc1ccc2nc3ccc4[nH]onc4c3c2c1` was tested. Which activity change, negative = inhibition did it give?
A: Its activity change, negative = inhibition is inconclusive: 162%.

Q: Which activity change, negative = inhibition does the source give for `Oc1cc(O)c2c(c1)O[C@H](c1ccc(O)c(O)c1)[C@H](O)C2` here?
A: The activity change, negative = inhibition was “inactive”.

Q: With `Cc1cc(OCC(=O)c2ccc(F)cc2)ccc1N1C(=O)CCC1=O` as the compound, how does the activity change, negative = inhibition read?
A: The activity change, negative = inhibition was inconclusive: 56%.

Q: Which “activity change, negative = inhibition” value does the source give for `CCOCCOC(=O)C1=C(C)Nc2ccc(C)cc2S1` here?
A: The value was inactive: -23.3%.

Q: How did the activity change, negative = inhibition turn out when `CSc1nsc(SC)c1NC(=O)N1CCCC1` was run?
A: Its activity change, negative = inhibition is inconclusive: 45.9%.
